For one molecule, binding results are on record in article PMC10621131.

Amino acid sequences for entries named in this document (tags omitted).
UniProt O88597: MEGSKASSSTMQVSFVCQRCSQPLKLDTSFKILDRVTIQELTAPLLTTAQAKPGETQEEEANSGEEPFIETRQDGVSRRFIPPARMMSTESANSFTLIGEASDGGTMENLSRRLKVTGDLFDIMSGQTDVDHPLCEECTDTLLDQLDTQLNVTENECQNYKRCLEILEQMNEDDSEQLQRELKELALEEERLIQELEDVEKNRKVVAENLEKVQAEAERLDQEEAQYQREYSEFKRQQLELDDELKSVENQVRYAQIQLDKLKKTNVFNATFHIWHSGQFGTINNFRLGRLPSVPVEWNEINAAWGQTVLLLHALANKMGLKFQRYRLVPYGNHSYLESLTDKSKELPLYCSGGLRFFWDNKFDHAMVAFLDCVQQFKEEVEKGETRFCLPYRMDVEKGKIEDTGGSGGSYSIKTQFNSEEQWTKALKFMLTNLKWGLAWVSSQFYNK

Results are given in words; binding and its absence hold for the method and conditions named. In cells and extracts the contact can be indirect. Some results given as binding are weak or reduced against the parent protein; the word gives no strength.

For the assay, the target named is Beclin-1 (mouse (endogenous in BMDMs)) (UniProt O88597). Briefly: co-IP; BMDM lysates (Nonidet P40 lysis buffer with 10 mM nicotinamide and 10 uM TSA) incubated overnight at 4 °C with anti-Beclin-1 or NC IgG, Protein A/G magnetic beads 2 h, blot with anti-TRAF6; groups: blank, M1 (LPS 50 ng/mL, 24 h), M1 + si-NC, M1 + si-TRAF6.

B1: tumor necrosis factor (TNF) receptor-associated factor 6 (TRAF6) (protein, UniProt P70196 1-530)
chain: MSLLNCENSCGSSQSSSDCCAAMAASCSAAVKDDSVSGSASTGNLSSSFMEEIQGYDVEFDPPLESKYECPICLMALREAVQTPCGHRFCKACIIKSIRDAGHKCPVDNEILLENQLFPDNFAKREILSLTVKCPNKGCLQKMELRHLEDHQVHCEFALVNCPQCQRPFQKCQVNTHIIEDCPRRQVSCVNCAVSMAYEEKEIHDQSCPLANIICEYCGTILIREQMPNHYDLDCPTAPIPCTFSVFGCHEKMQRNHLARHLQENTQLHMRLLAQAVHNVNLALRPCDAASPSRGCRPEDPNYEETIKQLESRLVRQDHQIRELTAKMETQSMYVGELKRTIRTLEDKVAEMEAQQCNGIYIWKIGNFGMHLKSQEEERPVVIHSPGFYTGRPGYKLCMRLHLQLPTAQRCANYISLFVHTMQGEYDSHLPWPFQGTIRLTILDQSEALIRQNHEEVMDAKPELLAFQRPTIPRNPKGFGYVTFMHLEALRQGTFIKDDTLLVRCEVSTRFDMGGLRKEGFQPRSTDAGV
In the case of B1, the binding entry is “binds”.
